These are yes or no findings as the source states them, for the method shown. In cells and extracts the contact can be indirect. These calls come from enrichment with a bait or labelling near it, and not all partners need be listed.
B1: LAMP2 (protein, UniProt P17047 26-415)
chain: LIVNLTDSKGTCLYAEWEMNFTITYETTNQTNKTITIAVPDKATHDGSSCGDDRNSAKIMIQFGFAVSWAVNFTKEASHYSIHDIVLSYNTSDSTVFPGAVAKGVHTVKNPENFKVPLDVIFKCNSVLTYNLTPVVQKYWGIHLQAFVQNGTVSKNEQVCEEDQTPTTVAPIIHTTAPSTTTTLTPTSTPTPTPTPTPTVGNYSIRNGNTTCLLATMGLQLNITEEKVPFIFNINPATTNFTGSCQPQSAQLRLNNSQIKYLDFIFAVKNEKRFYLKEVNVYMYLANGSAFNISNKNLSFWDAPLGSSYMCNKEQVLSVSRAFQINTFNLKVQPFNVTKGQYSTAQDCSADEDNFLVPIAVGAALGGVLILVLLAYFIGLKRHHTGYEQF

The chains behind the UniProt entries cited, without tags or fusion partners. Where a name states a change or a piece, a line headed by the entry shows the natural chain unless it says otherwise. Residues count along the entry.
UniProt P11021, residues 19-654: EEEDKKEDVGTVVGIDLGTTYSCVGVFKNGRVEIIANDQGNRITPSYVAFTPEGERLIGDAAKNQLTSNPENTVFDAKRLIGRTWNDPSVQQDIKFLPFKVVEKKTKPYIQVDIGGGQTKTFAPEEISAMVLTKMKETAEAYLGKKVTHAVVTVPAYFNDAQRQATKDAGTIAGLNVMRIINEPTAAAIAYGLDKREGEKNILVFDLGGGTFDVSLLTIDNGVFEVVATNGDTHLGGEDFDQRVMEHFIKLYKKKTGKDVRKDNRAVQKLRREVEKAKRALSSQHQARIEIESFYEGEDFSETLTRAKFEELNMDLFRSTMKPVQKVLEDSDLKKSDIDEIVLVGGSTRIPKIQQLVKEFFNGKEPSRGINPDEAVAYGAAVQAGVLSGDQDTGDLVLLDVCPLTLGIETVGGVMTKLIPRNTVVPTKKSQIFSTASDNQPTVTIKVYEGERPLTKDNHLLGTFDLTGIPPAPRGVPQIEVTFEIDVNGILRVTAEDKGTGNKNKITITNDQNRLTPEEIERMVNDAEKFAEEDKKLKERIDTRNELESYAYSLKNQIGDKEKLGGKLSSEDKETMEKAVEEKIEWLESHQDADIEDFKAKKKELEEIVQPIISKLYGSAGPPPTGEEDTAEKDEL
UniProt P30051: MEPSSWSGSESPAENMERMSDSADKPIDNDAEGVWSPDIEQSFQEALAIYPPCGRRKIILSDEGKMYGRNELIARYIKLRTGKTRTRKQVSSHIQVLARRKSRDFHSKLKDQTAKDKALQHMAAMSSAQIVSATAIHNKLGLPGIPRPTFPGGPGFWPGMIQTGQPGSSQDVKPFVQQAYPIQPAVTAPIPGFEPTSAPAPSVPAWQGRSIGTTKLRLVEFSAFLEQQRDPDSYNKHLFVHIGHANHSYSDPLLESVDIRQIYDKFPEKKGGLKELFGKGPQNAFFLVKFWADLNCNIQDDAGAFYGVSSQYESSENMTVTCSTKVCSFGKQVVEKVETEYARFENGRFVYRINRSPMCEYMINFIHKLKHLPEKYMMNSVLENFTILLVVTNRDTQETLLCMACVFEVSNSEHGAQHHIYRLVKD
UniProt P17879: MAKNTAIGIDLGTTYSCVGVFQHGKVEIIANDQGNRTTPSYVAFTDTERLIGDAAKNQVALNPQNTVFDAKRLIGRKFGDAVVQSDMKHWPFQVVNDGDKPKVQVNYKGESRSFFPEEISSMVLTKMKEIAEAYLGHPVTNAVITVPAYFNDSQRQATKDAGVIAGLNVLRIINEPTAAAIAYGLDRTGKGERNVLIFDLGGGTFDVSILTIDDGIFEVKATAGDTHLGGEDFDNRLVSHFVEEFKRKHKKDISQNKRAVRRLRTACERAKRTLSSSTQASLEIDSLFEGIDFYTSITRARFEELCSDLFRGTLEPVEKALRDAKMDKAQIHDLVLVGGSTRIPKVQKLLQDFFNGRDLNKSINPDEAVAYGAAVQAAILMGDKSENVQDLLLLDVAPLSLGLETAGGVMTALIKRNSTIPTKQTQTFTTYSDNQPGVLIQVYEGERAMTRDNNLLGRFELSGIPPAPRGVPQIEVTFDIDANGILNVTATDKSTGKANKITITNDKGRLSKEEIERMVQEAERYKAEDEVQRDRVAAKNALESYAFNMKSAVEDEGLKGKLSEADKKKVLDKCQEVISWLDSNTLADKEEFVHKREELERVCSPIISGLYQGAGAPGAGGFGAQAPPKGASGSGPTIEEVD
UniProt O70370: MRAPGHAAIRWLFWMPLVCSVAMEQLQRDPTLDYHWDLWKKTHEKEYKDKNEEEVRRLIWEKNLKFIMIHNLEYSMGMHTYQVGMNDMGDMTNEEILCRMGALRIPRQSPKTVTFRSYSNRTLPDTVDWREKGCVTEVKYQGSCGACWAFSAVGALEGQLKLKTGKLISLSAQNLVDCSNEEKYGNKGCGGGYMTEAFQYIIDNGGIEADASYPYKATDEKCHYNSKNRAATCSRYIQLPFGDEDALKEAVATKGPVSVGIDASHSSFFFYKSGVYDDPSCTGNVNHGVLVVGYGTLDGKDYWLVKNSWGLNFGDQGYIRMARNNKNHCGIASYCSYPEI
UniProt Q9EQU5: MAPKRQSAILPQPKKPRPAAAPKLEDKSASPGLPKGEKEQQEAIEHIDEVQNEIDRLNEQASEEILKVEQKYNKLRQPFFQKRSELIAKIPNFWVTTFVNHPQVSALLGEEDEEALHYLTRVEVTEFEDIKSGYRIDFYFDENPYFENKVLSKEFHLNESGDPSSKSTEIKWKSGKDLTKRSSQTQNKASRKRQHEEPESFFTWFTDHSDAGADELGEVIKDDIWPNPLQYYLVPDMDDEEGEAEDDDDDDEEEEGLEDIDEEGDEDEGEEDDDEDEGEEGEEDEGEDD

Biological target: biotinylated-His-GRP78 (UniProt P11021)
Assay: affinity purification with mass spectrometry; RAW264.7 cells treated with 40 nM biotinylated-His-GRP78 for 30 min, cross-linked with 2 mM DTSSP at room temperature, lysed; streptavidin-agarose 2 h at 4 C, eluted with 0.1 M glycine HCl pH 2.5; mass spectrometry; top eight of 191 proteins listed; only the target purified

| Molecule | binding |
| --- | --- |
| Tead1 (from UniProt P30051 1-426) | binds |
| Hspa1b (from UniProt P17879 1-642) | binds |
| Ctss (from UniProt O70370) | binds |
| Set (from UniProt Q9EQU5 1-289) | binds |
| B1 | binds |
